The shares of active, inactive and inconclusive entries below differ from those in the screen. Potencies of inconclusive entries are doubtful fits and often do not repeat. The source made the active and inactive calls. Unless noted, the limit is not given here; nearly all actives have AC50 up to about 30 µM.
Assay: growth inhibition of DIPG glioma cells, dose response, cell-based, JHH-DIPG-1, MIPE4.0, CellTiter-Glo, qHTS (AID 1347062; cut-off not given, nearly all actives have AC50 up to about 27 µM;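 also: cells exposed to compound for two days before readout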)
Settings: JHH-DIPG-1 viability, CellTiter-Glo ATP luminescence

Compound | AC50
C=C1CCC2[C@](C)(CO)C(O)CC[C@]2(C)C1C/C=C1/C(=O)OCC1O (some centres undefined) | inconclusive: 0.215 µM [cytotoxic]
COc1ccc(Nc2cc(-c3cnc(N)nc3)nc(N3CCOCC3)n2)cn1 | active: 5.9 µM
Cc1cn([C@H]2C[C@H](N=[N+]=[N-])[C@@H](CO)O2)c(=O)[nH]c1=O | inconclusive: 26.4 µM [cytotoxic]

Assay: growth inhibition of DIPG glioma cells, dose response, cell-based, SU-DIPG-IV, MIPE4.0, CellTiter-Glo, qHTS (AID 1347063);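 also: compound exposure lasted 48 hours before the viability readout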
Settings: SU-DIPG-IV viability, CellTiter-Glo ATP luminescence

Compound | outcome | AC50
O=C(c1ccc(F)cc1)N1CCC[C@H](c2nc(-c3ccc(F)cc3)no2)C1 | inactive | 
C=CC1=C(C(=O)O)N2C(=O)[C@@H](NC(=O)/C(=N\O)c3csc(N)n3)[C@H]2SC1 (stereo in doubt) | inactive | 
COC(=O)N[C@H](C(=O)N[C@@H](Cc1ccccc1)[C@@H](O)CN(Cc1ccc(-c2ccccn2)cc1)NC(=O)[C@@H](NC(=O)OC)C(C)(C)C)C(C)(C)C |  | inconclusive: 16.6 µM [cytotoxic]
C#CCN(C)CC1=Cc2ccccc2Oc2ccccc21 |  | inconclusive: 0.418 µM [cytotoxic]
O=C(OC1C[C@H]2CC[C@@H](C1)[N+]21CCCC1)C(O)(c1ccccc1)c1ccccc1 (some centres undefined) | inactive | 
COc1ccc(-c2coc3cc(O)ccc3c2=O)cc1 | inactive | 
CN1C(=O)C(Cc2c[nH]c3ccccc23)NC1=S (centres undefined) |  | inconclusive: 0.743 µM [cytotoxic]
Cc1cc(SCc2sc(-c3ccc(C(F)(F)F)cc3)nc2C)ccc1OCC(=O)O | inactive | 
Cc1nccn1CC1CCc2c(c3ccccc3n2C)C1=O (centres undefined) |  | inconclusive: 11.8 µM [cytotoxic]
COc1cc2nc(N(C)CCCNC(=O)C3CCCO3)nc(N)c2cc1OC (centres undefined) |  | inconclusive: 26.4 µM [cytotoxic]
O=C(O)C1=CO[C@@H](O[C@@H]2O[C@H](CO)[C@@H](O)[C@H](O)[C@H]2O)[C@@H]2C(CO)=CC[C@H]12 | inactive | 
NC[C@@H]1O[C@H](O[C@H]2[C@@H](O)[C@H](O[C@@H]3[C@@H](O)[C@H](N)C[C@H](N)[C@H]3O[C@H]3O[C@H](CN)[C@@H](O)[C@H](O)[C@H]3N)O[C@@H]2CO)[C@H](N)[C@@H](O)[C@@H]1O | inactive | 
CC/C=C\C[C@H]1C(=O)CC[C@@H]1CC(=O)OC | inactive | 
CC(=O)N1CCN(c2ccc(OC[C@H]3CO[C@](Cn4ccnc4)(c4ccc(Cl)cc4Cl)O3)cc2)CC1 |  | inconclusive: 20.9 µM [cytotoxic]
CCCCC[C@H](O)/C=C/[C@H]1[C@H](O)CC(=O)[C@@H]1C/C=C\CCCC(=O)O | inactive | 
CNC1[C@@H](O)C(O[C@@H]2C(O)C(O[C@H]3O[C@H]([C@@H](C)NC)CC[C@H]3N)[C@@H](N)C[C@H]2N)OC[C@]1(C)O (some centres undefined) | inactive | 
C[C@@H](Cc1cc2c(c(C(N)=O)c1)N(CCCO)CC2)NCCOc1ccccc1OCC(F)(F)F | inactive | 
COC[C@H](NC(=O)c1cnc(C)s1)C(=O)N[C@@H](COC)C(=O)N[C@@H](Cc1ccccc1)C(=O)[C@@]1(C)CO1 |  | active: 0.148 µM

At a glance, part of the list above:
Compound | outcome | AC50
CCCCC[C@H](O)/C=C/[C@H]1[C@H](O)CC(=O)[C@@H]1C/C=C\CCCC(=O)O | inactive | 
CNC1[C@@H](O)C(O[C@@H]2C(O)C(O[C@H]3O[C@H]([C@@H](C)NC)CC[C@H]3N)[C@@H](N)C[C@H]2N)OC[C@]1(C)O (some centres undefined) | inactive | 
C[C@@H](Cc1cc2c(c(C(N)=O)c1)N(CCCO)CC2)NCCOc1ccccc1OCC(F)(F)F | inactive | 

Next compounds

Compound | outcome | AC50
O=C(OCC#CCSc1nnc(-c2cccc3ccccc23)o1)c1cc2ccccc2s1 |  | inconclusive: 20.9 µM [cytotoxic]
COc1cc(N2CCN(C)CC2)ccc1Nc1nc(N)c(C(=O)c2c(Cl)cccc2Cl)s1 |  | inconclusive: 29.6 µM [cytotoxic]
Cc1cn([C@@H]2O[C@H](CO)[C@@H](O)[C@@H]2F)c(=O)[nH]c1=O | inactive | 
CCn1c(-c2nonc2N)nc2cncc(CNC3CCNCC3)c21 |  | inconclusive: 14.8 µM [cytotoxic]
CCCN[C@H]1CCc2nc(N)sc2C1 |  | inconclusive: 37.2 µM [cytotoxic]
Cc1ccc(S(=O)(=O)NC(=O)NN2CC3CCCC3C2)cc1 (centres undefined) |  | inconclusive: 33.2 µM [cytotoxic]
COc1cc(Cl)cn2c(-c3cccc(NC4CNC4)n3)cnc12 |  | inconclusive: 13.2 µM [cytotoxic]
CC[C@H]1OC(=O)[C@H](C)C(=O)[C@H](C)[C@@H](O[C@H]2O[C@H](C)C[C@H](N(C)C)[C@H]2O)[C@](C)(OC)C[C@@H](C)C(=O)[C@H](C)[C@H]2N(CCCCn3cnc(-c4cccnc4)c3)C(=O)O[C@]12C | inactive | 
CCC(C)n1ncn(-c2ccc(N3CCN(c4ccc(OC[C@H]5CO[C@](Cn6cncn6)(c6ccc(Cl)cc6Cl)O5)cc4)CC3)cc2)c1=O (some centres undefined) |  | inconclusive: 0.59 µM [cytotoxic]
CC[C@H]1OC(=O)[C@H](C)[C@@H](O[C@H]2C[C@@](C)(OC)[C@@H](O)[C@H](C)O2)[C@H](C)[C@@H](O[C@@H]2O[C@H](C)C[C@H](N(C)C)[C@H]2O)[C@](C)(OC)C[C@@H](C)C(=O)[C@H](C)[C@@H](O)[C@]1(C)O | inactive | 
NC[C@H]1O[C@H](O[C@@H]2[C@H](O)[C@@H](O[C@H]3O[C@H](CO)[C@@H](O)[C@H](N)[C@H]3O)[C@H](N)C[C@@H]2N)[C@H](O)[C@@H](O)[C@@H]1O | inactive | 
O=C(NOC[C@H](O)CO)c1ccc(F)c(F)c1Nc1ccc(I)cc1F |  | inconclusive: 1.32 µM [cytotoxic]
CN(C)CC/C=C1/c2ccccc2COc2ccc(CC(=O)O)cc21 |  | inconclusive: 4.69 µM
CC1(C)S[C@H]2[C@H](NC(=O)[C@@H](N)c3ccc(O)cc3)C(=O)N2[C@H]1C(=O)O |  | inconclusive: 1.18 µM [cytotoxic]
COCCCOc1cc(C[C@@H](C[C@H](N)[C@@H](O)C[C@H](C(=O)NCC(C)(C)C(N)=O)C(C)C)C(C)C)ccc1OC |  | inconclusive: 0.418 µM
NC(=O)c1ccc(-c2nc(-c3ccc4c(c3)OCO4)c(-c3ccccn3)[nH]2)cc1 | inactive | 
NC(=O)c1cccc(-c2cccc(OC(=O)NC3CCCCC3)c2)c1 | inactive | 
O=c1c(-c2ccc(O)cc2)coc2cc(OC3O[C@H](CO)[C@@H](O)[C@H](O)[C@H]3O)cc(O)c12 (some centres undefined) |  | inconclusive: 6.62 µM [cytotoxic]
